# Data reported in PubChem BioAssay AID1851 (National Center for Advancing Translational Sciences (NCATS), 2009).
# Amino acid sequences for entries named in this document (tags omitted).
# UniProt P08684, whole entry, looked up: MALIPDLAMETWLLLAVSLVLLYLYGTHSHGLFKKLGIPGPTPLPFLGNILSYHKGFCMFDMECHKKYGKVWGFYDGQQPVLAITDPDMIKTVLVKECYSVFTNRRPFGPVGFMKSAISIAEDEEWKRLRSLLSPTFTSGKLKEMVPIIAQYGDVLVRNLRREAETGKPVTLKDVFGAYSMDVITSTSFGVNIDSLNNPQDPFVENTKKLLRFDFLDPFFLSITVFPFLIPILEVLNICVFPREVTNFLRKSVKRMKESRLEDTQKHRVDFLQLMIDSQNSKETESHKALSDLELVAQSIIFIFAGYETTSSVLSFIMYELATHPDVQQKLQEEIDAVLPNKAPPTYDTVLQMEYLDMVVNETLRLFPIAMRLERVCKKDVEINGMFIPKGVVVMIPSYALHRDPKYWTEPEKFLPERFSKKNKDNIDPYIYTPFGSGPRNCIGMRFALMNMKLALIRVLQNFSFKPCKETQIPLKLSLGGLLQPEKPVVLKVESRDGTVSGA
# The campaign covered roughly 16,000 compounds. About 5,100 (32%) were called active. The shares of active, inactive and inconclusive entries below differ from those in the screen. Calls follow the shape of the dose curve; as a rule, active = well fitted curve in the direction sought with a large enough effect; inconclusive = small, poorly fitted or top-dose-only effect, or effect the other way; inactive = no such curve, though single readings can be large or run the other way. For some of these results: A potency beside an inconclusive call is a rough fit, not a confirmed value.
# Tests used:
# [1] = target: Cytochrome P450 3A4 (Homo sapiens) (UniProt P08684); assay: Cytochrome panel assay with activity outcomes; settings: recombinant CYP, pro-luciferin dealkylation, luminescence, p450-cyp3a4; activity, negative = inhibition: at 57.1 µM (top of the series)
# [2] = target: Cytochrome P450 1A2 (Homo sapiens) + Cytochrome P450 3A4 (Homo sapiens) + Cytochrome P450 2D6 (Homo sapiens) + Cytochrome P450 2C9 (Homo sapiens) + Cytochrome P450 2C19 (Homo sapiens) (UniProt P08684); assay: Cytochrome panel assay with activity outcomes; settings: recombinant CYP, pro-luciferin dealkylation, luminescence
# % is scaled to controls: 0 for no effect and ±100 for the full control effect.
structure (smiles),measurement,setting,value
CN1CCN(c2ncc3nc(-c4ccccc4)c(=O)n(CCc4ccccc4)c3n2)CC1,"activity, negative = inhibition",[1],inactive
Nc1ccn([C@H]2O[C@@H](COP(=O)(O)O)[C@@H](O)[C@H]2O)c(=O)n1,"activity, negative = inhibition",[1],inactive: -4.22% [at 11.4 µM]
O=C1C(CCS(=O)c2ccccc2)C(=O)N(c2ccccc2)N1c1ccccc1 (configuration not stated),"activity, negative = inhibition",[2],inconclusive
O=C(N/N=C/C1CCCCC1)c1ccccn1,"activity, negative = inhibition",[1],inactive: -7.05% [at 11.4 µM]
N.N.N.N.N.N.N.N.N.N.N.N.N.N.O.O.[Ru].[Ru].[Ru],AC50,[1],"inconclusive: 39.8 µM [falling, single point]"
CS(=O)(=O)N1CCC2(CCN(Cc3nccs3)CC2)CC1,"activity, negative = inhibition",[1],inactive
COc1cc2nc(N3CC=[N+](C(=O)c4ccco4)CC3)nc(N)c2cc1OC,"activity, negative = inhibition",[1],inconclusive: 56.6% [full curve]
